No constants are given. Whether binding was seen depends on the method and setting.

Chains of the proteins cited; added tags and fusions are not shown. Residues count along the entry.
UniProt Q9GZT9, residues 181-407: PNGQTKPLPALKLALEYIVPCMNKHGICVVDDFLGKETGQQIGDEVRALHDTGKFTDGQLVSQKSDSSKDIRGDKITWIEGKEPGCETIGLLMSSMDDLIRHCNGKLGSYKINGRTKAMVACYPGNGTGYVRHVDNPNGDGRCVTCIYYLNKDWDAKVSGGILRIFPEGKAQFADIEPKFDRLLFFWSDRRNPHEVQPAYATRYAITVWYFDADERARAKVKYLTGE

The assay concerns the target PHD2_(181-407) (catalytic domain construct of human hypoxia-inducible factor prolyl hydroxylase 2) (human) (UniProt Q9GZT9). Put plainly: SEC-MALS; cPHD2 with and without 3C; both purified. In general terms: Size exclusion chromatography separates by hydrodynamic size, large species first.

With “PHD2_(181-407) (catalytic domain construct of human hypoxia-inducible factor prolyl hydroxylase 2) (from UniProt Q9GZT9 181-407) (domain or fragment)”, the binding result is “no binding”.

For the origin of these results see paper PMC7738489, “Use of cyclic peptides to induce crystallization: case study with prolyl hydroxylase domain 2” (Scientific Reports, 2020).
